Patent publication US20200190176A1 (VERITAS THERAPEUTICS, published 2020)
Results are given in words; binding and its absence hold for the method and conditions named. Some binding calls cover weakened binding; strength is not graded here.

How the values were obtained:
recombinant human FGL2 [1] = biological target: T1, recombinant human FGL2 (human, UniProt Q14314 30-439, limits assumed); assay: ELISA; FACS; IHC; Western blot
T1 construct: also called hFGL2; FGL2/fibroleukin
T1 sequence (looked up): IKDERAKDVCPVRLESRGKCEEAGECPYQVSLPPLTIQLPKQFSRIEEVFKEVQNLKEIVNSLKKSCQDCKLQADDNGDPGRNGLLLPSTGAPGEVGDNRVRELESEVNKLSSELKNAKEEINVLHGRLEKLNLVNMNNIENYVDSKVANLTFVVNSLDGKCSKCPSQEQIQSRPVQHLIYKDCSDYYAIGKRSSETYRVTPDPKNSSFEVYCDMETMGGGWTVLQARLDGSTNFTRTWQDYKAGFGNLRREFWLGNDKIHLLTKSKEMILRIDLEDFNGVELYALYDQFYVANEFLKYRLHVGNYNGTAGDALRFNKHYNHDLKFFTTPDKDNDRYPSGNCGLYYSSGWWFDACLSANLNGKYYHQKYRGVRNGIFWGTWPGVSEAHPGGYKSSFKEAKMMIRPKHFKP

recombinant mouse FGL2 [2] = biological target: T2, recombinant mouse FGL2 (mouse, UniProt P12804 27-432, limits assumed); assay: SPR, 10 nM recombinant mouse FGL2
T2 construct: native mouse FGL2 is said to exist as an oligomer; also called murine recombinant FGL2
T2 sequence (looked up): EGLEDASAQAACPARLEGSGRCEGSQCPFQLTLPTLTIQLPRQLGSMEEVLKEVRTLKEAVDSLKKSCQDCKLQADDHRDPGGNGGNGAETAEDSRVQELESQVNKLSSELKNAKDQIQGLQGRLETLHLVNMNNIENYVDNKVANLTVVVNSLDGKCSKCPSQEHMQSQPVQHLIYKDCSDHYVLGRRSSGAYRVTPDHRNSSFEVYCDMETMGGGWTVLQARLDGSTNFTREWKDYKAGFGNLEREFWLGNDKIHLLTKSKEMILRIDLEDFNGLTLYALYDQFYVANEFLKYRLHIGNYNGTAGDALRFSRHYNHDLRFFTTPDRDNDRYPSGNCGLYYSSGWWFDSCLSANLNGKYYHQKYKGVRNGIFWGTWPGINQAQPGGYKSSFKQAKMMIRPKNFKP

recombinant human FGL2 [3] = biological target: T1, recombinant human FGL2; assay: antigen microarray, IgG reactivity (MFI)
recombinant human FGL2 [4] = biological target: T1, recombinant human FGL2; assay: SPR, 0.625 to 10 nM recombinant human FGL2
recombinant human FGL2 [5] = biological target: T1, recombinant human FGL2; assay: antigen microarray probed with 9D8, fluorescent secondary antibody
recombinant human FGL2 [6] = biological target: T1, recombinant human FGL2; assay: antigen microarray probed with 9D8 and a fluorescent secondary antibody, IgG reactivity as MFI
recombinant human FGL2 [7] = biological target: T1, recombinant human FGL2; assay: SPR (Biacore 3000), 9D8 captured by goat anti-mouse Fc, recombinant human FGL2 flowed as analyte
recombinant mouse FGL2 [8] = biological target: T2, recombinant mouse FGL2; assay: SPR (Biacore 3000), 9D8 captured by goat anti-mouse Fc, recombinant mouse FGL2 flowed as analyte

Measured: binding

B1: anti-FGL2 monoclonal antibody 9D8 (antibody, mouse IgG1, kappa, V domains shown)
VH: EVQLQQSGAELVKPGASVQLSCTASGFNIKDTYIHWVKQRPEQGLEWIGRIDPEDGNTKYDPKFQAKATITADTFSNTAYLQLSSLTSEDTAVYYCARSYGNAYWGQGTLVTVSA
VL: DIVLTQSPASLAVSLGQRATISCRASQSVSTSRYTYMHWYQQKPGQPPKLLIKYASNLDSGVPARFSGSGSGTDFTLNIHPVQEEDTATYYCQHSWEIWAFGGGTKLEIKR
notes: Mouse hybridoma antibody purified from ascites; isotype-matched control was IgG1; here built without leader from variable region plus constant region; also called clone 9D8; antibody to FGL2 (9D8)
binds: all assays above
